Results as given in PubChem BioAssay AID248 (DTP/NCI, 2004).
The list is a part of this screen's results and no random one: it is rich in T/C values a quarter to a half above the control, in often repeated tests (any T/C) and in doses without a T/C. Other doses and runs of a compound stand elsewhere. T/C: endpoint of the treated group in % of that of the vehicle group. Some entries give survivors of the animals treated and no T/C: the source files T/C as zero there, which appears to mark a toxic dose or a test without result, not a measured value. Some survivor counts are full or nearly so, which does not show that the dose was tolerated: survival well below the control is almost never listed, so the zero probably covers shortened survival too. Survivors were counted at the toxicity check, usually on the fifth day, unless a day is given; later deaths do not show. Schedules are NCI's codes, read here as Q, the interval in days (D) or hours (H), X, the number of doses. Some doses were run more than once; the results are listed from low to high.

System: L1210 leukemia ip in BDF1 mice, survival T/C
Experiment: NCI In Vivo Anticancer Drug Screen. Data for tumor model L1210 Leukemia (intraperitoneal) in B6D2F1 (BDF1) mice
Details: T/C endpoint: mean survival time, higher T/C = longer survival
[1] = dose: 400.0 mg/kg/injection, schedule: Q04DX003 (ip), vehicle: Klucel (hydroxypropylcellulose) (HPC)
[2] = dose: 25.0 mg/kg/injection, schedule: Q01DX009 (ip), vehicle: Klucel (hydroxypropylcellulose) (HPC)
[3] = dose: 400.0 mg/kg/injection, schedule: Q01DX001 (ip), vehicle: saline
[4] = dose: 400.0 mg/kg/injection, schedule: Q01DX009 (ip), vehicle: Klucel (hydroxypropylcellulose) (HPC)
[5] = dose: 200.0 mg/kg/injection, schedule: Q01DX009 (ip), vehicle: Klucel (hydroxypropylcellulose) (HPC)

O=C(O)CSc1cc(Cl)c(Cl)cc1Cl
survivor count (dose: 350.0 mg/kg/injection, schedule: Q04DX003 (ip), vehicle: other): 0 of 6

CCC(C)(CC)NC(C)=O
survivor count [1]: 1 of 6

O=C(Nc1ccc(F)c(Cl)c1)OCC1CCCO1 (stereo unspecified)
survivor count [2]: 3 of 3
survivor count [1]: 6 of 6

Cc1cccc2cc3c(ccc4ccccc43)c[n+]12
survivor count (dose: 16.0 mg/kg/injection, schedule: Q01DX015 (ip), vehicle: carboxymethylcellulose (CMC)): 0 of 6
survivor count (dose: 25.0 mg/kg/injection, schedule: Q01DX009 (ip), vehicle: saline with Tween-80): 5 of 6
survivor count (dose: 50.0 mg/kg/injection, schedule: Q01DX001 (ip), vehicle: saline): 0 of 6
survivor count (dose: 70.0 mg/kg/injection, schedule: Q04DX003 (ip), vehicle: saline): 0 of 6
survivor count (dose: 100.0 mg/kg/injection, schedule: Q01DX001 (ip), vehicle: saline): 0 of 6
survivor count (dose: 110.0 mg/kg/injection, schedule: Q04DX003 (ip), vehicle: saline): 0 of 6
survivor count (dose: 160.0 mg/kg/injection, schedule: Q04DX003 (ip), vehicle: saline): 0 of 6
survivor count (dose: 200.0 mg/kg/injection, schedule: Q01DX001 (ip), vehicle: saline): 0 of 6
survivor count [3]: 0 of 6

CCC1CN2C(=N1)c1cc(Cl)ccc1-c1ccc(Cl)cc12 (stereo unspecified)
survivor count [4]: 2 of 6

CN(C)CCCC1(c2cccc(Cl)c2)SC(C)(C)c2ccccc21 (stereo unspecified)
survivor count (dose: 100.0 mg/kg/injection, schedule: Q01DX009 (ip), vehicle: saline): 0 of 6
survivor count (dose: 200.0 mg/kg/injection, schedule: Q01DX009 (ip), vehicle: saline): 0 of 6
survivor count (dose: 400.0 mg/kg/injection, schedule: Q01DX009 (ip), vehicle: saline): 0 of 6

O=C(Nc1ccccc1F)Oc1ccc([N+](=O)[O-])cc1
survivor count [5]: 3 of 6
survivor count [4]: 0 of 6

COc1ccc(CC(=O)NCCc2ccc3c(c2)OCO3)cc1OC
survivor count (dose: 300.0 mg/kg/injection, schedule: Q01DX009 (ip), vehicle: saline with Tween-80): 3 of 6
survivor count (dose: 400.0 mg/kg/injection, schedule: Q04DX003 (ip), vehicle: saline with Tween-80): 3 of 6

CN(C)Cc1ccncc1
survivor count [3]: 0 of 6

CNC(=O)OCC1=CC(=O)C=CC1=O
survivor count (dose: 25.0 mg/kg/injection, schedule: Q04DX003 (ip), vehicle: Klucel (hydroxypropylcellulose) (HPC)): 2 of 6
survivor count (dose: 50.0 mg/kg/injection, schedule: Q01DX001 (ip), vehicle: Klucel (hydroxypropylcellulose) (HPC)): 0 of 6
survivor count (dose: 100.0 mg/kg/injection, schedule: Q01DX001 (ip), vehicle: Klucel (hydroxypropylcellulose) (HPC)): 0 of 6
survivor count (dose: 200.0 mg/kg/injection, schedule: Q01DX001 (ip), vehicle: Klucel (hydroxypropylcellulose) (HPC)): 0 of 6
survivor count (dose: 400.0 mg/kg/injection, schedule: Q01DX001 (ip), vehicle: Klucel (hydroxypropylcellulose) (HPC)): 0 of 6

O=C1OCC/C1=C/OCCO/C=C1\CCOC1=O
survivor count (dose: 400.0 mg/kg/injection, schedule: Q04DX002 (ip), vehicle: Klucel (hydroxypropylcellulose) (HPC)): 3 of 3

CC[CH2][Sn]([CH2]CC)([CH2]CC)[O]C(=O)c1ccccc1I
survivor count (dose: 6.25 mg/kg/injection, schedule: Q01DX009 (ip), vehicle: Klucel (hydroxypropylcellulose) (HPC)): 0 of 3
survivor count (dose: 12.5 mg/kg/injection, schedule: Q01DX009 (ip), vehicle: Klucel (hydroxypropylcellulose) (HPC)): 0 of 3
survivor count [2]: 0 of 3 and 0 of 6
survivor count (dose: 50.0 mg/kg/injection, schedule: Q01DX009 (ip), vehicle: Klucel (hydroxypropylcellulose) (HPC)): 0 of 6
survivor count (dose: 100.0 mg/kg/injection, schedule: Q01DX009 (ip), vehicle: Klucel (hydroxypropylcellulose) (HPC)): 0 of 6
survivor count [5]: 0 of 6
survivor count [4]: 0 of 6

COc1ccccc1-n1c(=O)c(N=Nc2ccccc2)c(O)n(-c2ccccc2Cl)c1=S
survivor count (dose: 200.0 mg/kg/injection, schedule: Q04DX003 (ip), vehicle: saline with Tween-80): 2 of 6
